Test: Recovery of the microdialysis probes (probe immersed in DOM/DOAM mixture)
Settings: probe in 1 µg/mL mixture in artificial cerebrospinal fluid, 1 µL/min, 15 min

Row | Structure (SMILES) | Mean (SD) recovery of the microdialysis probes [%]
1 | COc1cc(CC(C)N)c(OC)cc1C (centres unmarked) [DOM, 4-methyl-2,5-dimethoxyamphetamine] | 14.1
2 | CCCCCc1cc(OC)c(CC(C)N)cc1OC (centres unmarked) [DOAM, 4-amyl-2,5-dimethoxyamphetamine] | 3.9
